Results are given in words; binding and its absence hold for the method and conditions named. In cells and extracts the contact can be indirect. Some binding calls cover weakened binding; strength is not graded here.
Legend:
[1] = target: T1, NEDD8-activating enzyme E1 subunit 1 (NAE1) (human (endogenous in SK-BR3 and BT474)) (UniProt Q13564); test: co-IP; endogenous proteins in lysates of SK-BR3 and BT474 cells; magnetic beads with antibody (anti-NEDD8, anti-NAE1 or anti-HER2), protein bound 1-2 h at 4 °C, washed three times with PBST, immunoblot
T1 sequence: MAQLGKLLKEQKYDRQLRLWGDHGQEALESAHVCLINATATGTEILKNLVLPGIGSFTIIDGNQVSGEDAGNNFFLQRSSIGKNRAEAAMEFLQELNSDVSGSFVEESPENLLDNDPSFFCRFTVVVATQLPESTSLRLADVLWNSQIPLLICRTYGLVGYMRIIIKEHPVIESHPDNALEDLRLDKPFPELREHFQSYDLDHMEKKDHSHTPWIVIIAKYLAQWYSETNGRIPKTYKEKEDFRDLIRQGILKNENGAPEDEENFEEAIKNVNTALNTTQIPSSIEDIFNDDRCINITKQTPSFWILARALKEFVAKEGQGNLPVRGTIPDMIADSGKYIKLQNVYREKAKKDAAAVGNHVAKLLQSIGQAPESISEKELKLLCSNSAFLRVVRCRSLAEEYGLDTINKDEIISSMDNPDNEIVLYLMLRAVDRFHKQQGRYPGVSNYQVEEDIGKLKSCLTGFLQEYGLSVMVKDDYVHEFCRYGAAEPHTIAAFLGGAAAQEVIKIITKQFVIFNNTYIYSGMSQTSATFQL

By UniProt entry, the sequences of proteins in these tests, tags left out. Residues count along the entry.
UniProt Q15843, residues 1-76: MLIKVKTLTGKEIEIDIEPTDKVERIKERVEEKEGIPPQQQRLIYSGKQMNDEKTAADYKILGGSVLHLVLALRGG

[2] = target: His-tagged full-length NEDD8 (human) (UniProt Q15843); test: co-IP; cells transfected with His-tagged full-length NEDD8 and FLAG-tagged full-length or truncated HER2; anti-His immunoprecipitate, immunoblot for FLAG

binding [1] | binding [2] | Substance
binds | – | HER2 (human epidermal growth factor receptor 2) (from UniProt P04626 23-1255)
– | binds | FLAG-tagged HER2 protein domain (720-987 aa) (from UniProt P04626-1 720-987) (domain or fragment)
– | binds | FLAG-tagged HER2 domain (988-1255 aa) (from UniProt P04626-1 988-1255) (domain or fragment)
